The results in this text go back to PMC5996148.

The chains behind the UniProt entries cited, without tags or fusion partners. Where a name states a change or a piece, a line headed by the entry shows the natural chain unless it says otherwise.
UniProt Q9Y617: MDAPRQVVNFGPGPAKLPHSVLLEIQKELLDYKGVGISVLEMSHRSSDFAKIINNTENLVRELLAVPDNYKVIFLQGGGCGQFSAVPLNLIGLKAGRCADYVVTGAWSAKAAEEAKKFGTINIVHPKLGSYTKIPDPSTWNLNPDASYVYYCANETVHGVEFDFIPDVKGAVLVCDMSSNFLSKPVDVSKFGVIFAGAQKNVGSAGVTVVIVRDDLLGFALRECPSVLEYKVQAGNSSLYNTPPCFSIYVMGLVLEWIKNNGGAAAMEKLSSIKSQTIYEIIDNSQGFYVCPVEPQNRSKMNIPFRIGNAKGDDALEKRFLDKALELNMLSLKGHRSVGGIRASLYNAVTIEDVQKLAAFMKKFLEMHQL

Among the test systems are PRMT7 (human); PROCR (human); PRPSAP2 (human); PRRT2 (human); PSCD4 (human); PSG11 (human); PSMA4 (human); PSMA5 (human); PSMB4 (human); PSMB8 (human); PSMD10 (human); PSMD11 (human); PSMD5 (human); PSME1 (human); PSPH (human); PTCHD1 (human); PTGES2 (human).
What all share (assay): protein microarray (ProtoArray v5.0), streptavidin-Alexa Fluor 647
Common to all, as to details: 3'-biotin; 20 mM Tris (pH 7.5), 5 mM MgCl2, 100 mM KCl, 0.1% Tween-20, A/T-rich and random oligonucleotide blockers; temperature not stated; high values mean tight binding

The target in another test is T1, PRRG2 (UniProt O14669).
T1 sequence: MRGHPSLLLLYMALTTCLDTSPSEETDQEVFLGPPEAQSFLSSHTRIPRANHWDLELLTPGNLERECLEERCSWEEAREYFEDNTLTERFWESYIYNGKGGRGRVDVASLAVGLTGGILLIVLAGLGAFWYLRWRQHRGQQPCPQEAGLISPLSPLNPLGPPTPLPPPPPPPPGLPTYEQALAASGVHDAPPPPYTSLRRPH

For another test, the target named is PSAT1 (UniProt Q9Y617).
Another test deals with T2, PSRC1 (UniProt Q6PGN9).
T2 sequence: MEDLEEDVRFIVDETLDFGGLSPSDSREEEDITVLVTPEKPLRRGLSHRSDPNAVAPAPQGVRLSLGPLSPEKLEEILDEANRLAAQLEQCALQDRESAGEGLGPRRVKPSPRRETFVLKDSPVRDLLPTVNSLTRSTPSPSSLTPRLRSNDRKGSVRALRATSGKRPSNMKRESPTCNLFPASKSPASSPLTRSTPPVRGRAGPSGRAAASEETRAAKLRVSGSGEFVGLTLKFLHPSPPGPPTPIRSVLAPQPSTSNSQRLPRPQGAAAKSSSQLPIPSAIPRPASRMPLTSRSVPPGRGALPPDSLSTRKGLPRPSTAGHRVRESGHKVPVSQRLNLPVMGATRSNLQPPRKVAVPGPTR

The list shows a part of the results. For some assays here: Construct or isoform of the protein are uncertain.

“GGTGACAGGGGTATGGGGAGGGG [G4-2 biotinylated (Ct1)]”: the binding signal with PRMT7 (human) is -0.395 z-score; with PROCR (human) it was -0.37 z-score; in the test with PRPSAP2 (human), -0.365 z-score; with PRRG2 it was -0.386 z-score; in the test on PRRT2 (human), -0.373 z-score; with PSAT1, -0.389 z-score. In addition, the binding signal with PSCD4 (human) was -0.364 z-score; in the test on PSG11 (human), -0.386 z-score; with PSMA4 (human), -0.387 z-score; with PSMA5 (human), -0.38 z-score; in the test with PSMB4 (human), -0.374 z-score; with PSMB8 (human), -0.357 z-score. Also, the binding signal was -0.379 z-score with PSMD10 (human); -0.394 z-score in the test with PSMD11 (human); -0.397 z-score with PSMD5 (human); -0.393 z-score with PSME1 (human); -0.362 z-score with PSPH (human); 4.05 z-score in the test with PSRC1. The binding signal was -0.38 z-score in the test with PTCHD1 (human) and -0.399 z-score in the test with PTGES2 (human).
